# Assay results published in US20130101549A1.
# Sequences of proteins named here, by UniProt entry; tags and fusion partners are left off. Residues count along the entry.
# UniProt P70424, residues 23-653: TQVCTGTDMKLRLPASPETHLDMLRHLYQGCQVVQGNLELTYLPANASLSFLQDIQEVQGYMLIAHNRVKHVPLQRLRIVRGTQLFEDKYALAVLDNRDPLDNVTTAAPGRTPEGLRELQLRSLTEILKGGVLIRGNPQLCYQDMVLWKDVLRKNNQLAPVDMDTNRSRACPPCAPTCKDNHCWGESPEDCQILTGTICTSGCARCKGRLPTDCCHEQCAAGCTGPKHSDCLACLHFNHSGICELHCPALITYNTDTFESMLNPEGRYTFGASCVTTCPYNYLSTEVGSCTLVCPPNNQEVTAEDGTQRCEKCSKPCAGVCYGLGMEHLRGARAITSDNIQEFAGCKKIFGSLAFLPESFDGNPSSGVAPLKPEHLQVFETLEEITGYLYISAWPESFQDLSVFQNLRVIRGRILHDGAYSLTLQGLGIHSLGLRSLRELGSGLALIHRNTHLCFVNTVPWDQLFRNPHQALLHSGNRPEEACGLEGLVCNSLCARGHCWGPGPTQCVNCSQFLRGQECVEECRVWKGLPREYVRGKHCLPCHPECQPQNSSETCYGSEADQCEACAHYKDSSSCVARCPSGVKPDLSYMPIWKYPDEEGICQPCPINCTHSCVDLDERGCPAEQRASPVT
# UniProt P06494, residues 23-1257: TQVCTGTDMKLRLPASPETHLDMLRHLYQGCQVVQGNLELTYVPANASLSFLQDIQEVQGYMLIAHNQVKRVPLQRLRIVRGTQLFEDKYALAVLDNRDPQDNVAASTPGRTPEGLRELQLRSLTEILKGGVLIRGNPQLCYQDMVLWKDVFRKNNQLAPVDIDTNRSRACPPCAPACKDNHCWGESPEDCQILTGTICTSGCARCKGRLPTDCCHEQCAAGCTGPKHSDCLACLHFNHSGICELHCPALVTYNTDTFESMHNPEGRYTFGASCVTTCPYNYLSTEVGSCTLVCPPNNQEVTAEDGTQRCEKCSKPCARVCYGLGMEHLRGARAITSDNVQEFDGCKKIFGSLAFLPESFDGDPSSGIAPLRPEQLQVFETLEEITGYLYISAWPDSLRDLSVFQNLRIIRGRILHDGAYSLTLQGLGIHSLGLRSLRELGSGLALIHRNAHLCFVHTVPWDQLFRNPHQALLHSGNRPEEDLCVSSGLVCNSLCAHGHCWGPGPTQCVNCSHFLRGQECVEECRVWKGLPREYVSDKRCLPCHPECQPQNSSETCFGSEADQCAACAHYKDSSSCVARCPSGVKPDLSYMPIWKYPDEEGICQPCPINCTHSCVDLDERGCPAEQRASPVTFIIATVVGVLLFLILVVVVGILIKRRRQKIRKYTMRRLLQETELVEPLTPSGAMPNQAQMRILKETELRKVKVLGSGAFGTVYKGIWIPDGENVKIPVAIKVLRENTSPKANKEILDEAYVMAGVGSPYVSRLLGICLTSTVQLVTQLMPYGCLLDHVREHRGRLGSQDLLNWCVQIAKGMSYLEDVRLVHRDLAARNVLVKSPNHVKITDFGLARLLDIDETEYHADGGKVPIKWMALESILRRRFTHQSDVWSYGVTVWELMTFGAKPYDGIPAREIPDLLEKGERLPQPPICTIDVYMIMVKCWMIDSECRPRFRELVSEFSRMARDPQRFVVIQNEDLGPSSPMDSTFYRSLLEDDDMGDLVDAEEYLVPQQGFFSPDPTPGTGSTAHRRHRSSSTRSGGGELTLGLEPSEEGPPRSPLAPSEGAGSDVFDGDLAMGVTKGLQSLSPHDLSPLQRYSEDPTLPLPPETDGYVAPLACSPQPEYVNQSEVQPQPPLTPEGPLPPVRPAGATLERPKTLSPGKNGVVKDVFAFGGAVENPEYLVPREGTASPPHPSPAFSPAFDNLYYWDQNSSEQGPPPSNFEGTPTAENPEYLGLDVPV
# No constants are given. Whether binding was seen depends on the method and setting. Some binding calls cover weakened binding; strength is not graded here.
# How the values were obtained:
# [1] = target: wild type mHER2/ErbB2 (ELISA antigen of Example 3) (mouse) (UniProt P70424); test: ELISA
# [2] = target: rat HER2 on Tubo cells (rat) (UniProt P06494); test: FACS on Tubo cells
binder,measurement,setting,value
"BIIB71F10 Fab (Fab, V domains shown) VH: EVQLLESGGGLVQPGGSLRLSCAASGFTFSSYGMVWVRQAPGKGLEWVSSISSSGGLTWYADSVKGRFTISRDNSKNTLYLQMNSLRAEDTAVYYCASPPGIAVARDYWGQGTLVTVSS VL: DIQMTQSPSSLSASVGDRVTITCRASQGISNYLAWYQQKPGKVPKLLIYAASTLQSGVPSRFSGSGSGTDFTLTISSLQPEDVATYYCQKYNSALLTFGGGTKVEIK",binding,[1],binds
same,binding,[2],binds
